Values from PubChem BioAssay AID1259308 (NCATS, 2017)
In all, the deposit lists about 59,000 reagents; this is a random part of them. In the full data, about 1,510 (2.6%) were called active. 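Calls use total luciferase alone and ignore viability, so some active siRNAs may act by altering cell number.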 Reagents against one gene are numbered here.

- Screen: 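Genes whose loss raises luciferase production in HEK293 cells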 (primary screen)
- Cell system: human HEK293 embryonic kidney cells stably expressing firefly luciferase (HEK-CMV-Luc2-Hygro)
- Reagents: single siRNA against human genes, 0.8 pmol siRNA per well
- Timing: 72 h
- Detection: 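Reporter luminescence and viable-cell signal on separate replicate plates, given as percent of non-targeting control and median/MAD z-scores, plus per-cell luciferase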
- Scale: total luciferase, z-score and total luciferase, % of control: higher = more reporter protein produced; luciferase per cell, z-score: higher = more reporter output per viable cell; viable cells, % of control: higher = more viable cells
- Rule for the call: 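Active when the median/MAD z-score for overall luciferase is greater than 3; a gene was taken forward for validation with new siRNAs if at least two of its three siRNAs passed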
- Calls: active = raised luciferase; inactive = no rise

"total luciferase, z-score","total luciferase, % of control","luciferase per cell, z-score","viable cells, % of control",Outcome,Gene,reagent no.
-0.711,67.7,0.653,63.7,inactive,CPSF6 (cleavage and polyadenylation specific factor 6),1
-0.52,71.5,-0.596,93.5,inactive,CPSF6 (cleavage and polyadenylation specific factor 6),2
0.393,89.7,0.00981,100,inactive,CPSF6 (cleavage and polyadenylation specific factor 6),3
1.4,110,1.45,83.8,inactive,SFT2D2 (SFT2 domain containing 2),1
0.291,87.7,0.00602,97.8,inactive,SFT2D2 (SFT2 domain containing 2),2
-1.63,49.4,-0.637,65.3,inactive,SFT2D2 (SFT2 domain containing 2),3
0.417,90.2,0.263,94,inactive,MED4 (mediator complex subunit 4),1
0.288,87.6,2.07,56.8,inactive,MED4 (mediator complex subunit 4),2
-2.34,35.4,-1.86,64.5,inactive,MED4 (mediator complex subunit 4),3
1.94,120,1.34,94.5,inactive,UBE2HP1 (ubiquitin conjugating enzyme E2 H pseudogene 1),1
1.36,109,1.84,74.9,inactive,UBE2HP1 (ubiquitin conjugating enzyme E2 H pseudogene 1),2
1.64,115,0.916,101,inactive,UBE2HP1 (ubiquitin conjugating enzyme E2 H pseudogene 1),3
1.34,108,0.952,94.4,inactive,MLLT10 (MLLT10 histone lysine methyltransferase DOT1L cofactor),1
-0.00491,81.8,-0.22,96.8,inactive,MLLT10 (MLLT10 histone lysine methyltransferase DOT1L cofactor),2
0.52,92.2,-0.541,119,inactive,MLLT10 (MLLT10 histone lysine methyltransferase DOT1L cofactor),3
-0.328,75.4,0.519,73.4,inactive,SPATA31C1 (SPATA31 subfamily C member 1),1
0.251,86.9,0.169,92.9,inactive,SPATA31C1 (SPATA31 subfamily C member 1),2
0.431,90.4,-0.27,109,inactive,SPATA31C1 (SPATA31 subfamily C member 1),3
0.307,88,-0.0235,98.9,inactive,LOC391322 (D-dopachrome tautomerase-like),1
1.63,114,1.29,90.8,inactive,LOC391322 (D-dopachrome tautomerase-like),2
9.8,277,4.59,92.4,active,LOC391322 (D-dopachrome tautomerase-like),3
1.33,108,1.48,82,inactive,GNG12 (G protein subunit gamma 12),1
0.677,95.4,0.191,101,inactive,GNG12 (G protein subunit gamma 12),2
0.919,100,0.0448,111,inactive,GNG12 (G protein subunit gamma 12),3

Reagents above with an active call, once more:
"total luciferase, z-score","total luciferase, % of control","luciferase per cell, z-score","viable cells, % of control",Outcome,Gene,reagent no.
9.8,277,4.59,92.4,active,LOC391322 (D-dopachrome tautomerase-like),3

Next records follow:
"total luciferase, z-score","total luciferase, % of control","luciferase per cell, z-score","viable cells, % of control",Outcome,Gene,reagent no.
0.46,91,0.478,89.7,inactive,REEP3 (receptor accessory protein 3),1
-0.216,77.6,-0.0682,88.3,inactive,REEP3 (receptor accessory protein 3),2
0.236,86.6,-0.406,108,inactive,REEP3 (receptor accessory protein 3),3
-1.85,45.1,-0.893,63.8,inactive,CSAG1 (chondrosarcoma associated gene 1),1
-2.13,39.4,-1.36,63.1,inactive,CSAG1 (chondrosarcoma associated gene 1),2
2.05,123,1.68,88.2,inactive,CSAG1 (chondrosarcoma associated gene 1),3
-1.22,57.6,-0.374,71.1,inactive,NKAIN3 (sodium/potassium transporting ATPase interacting 3),1
-1.2,58,-0.0311,65.4,inactive,NKAIN3 (sodium/potassium transporting ATPase interacting 3),2
3.81,158,3.76,65.6,active,NKAIN3 (sodium/potassium transporting ATPase interacting 3),3
-1.17,58.6,-0.687,78.5,inactive,SLC17A7,1
-0.274,76.4,-0.566,99.1,inactive,SLC17A7,2
2.34,128,2.54,73.5,inactive,SLC17A7,3
-0.338,75.2,0.0409,83.1,inactive,PITX3 (paired like homeodomain 3),1
0.73,96.4,0.0144,107,inactive,PITX3 (paired like homeodomain 3),2
0.973,101,-0.201,119,inactive,PITX3 (paired like homeodomain 3),3
1.34,109,2.24,67.3,inactive,DCUN1D4 (defective in cullin neddylation 1 domain containing 4),1
0.477,91.4,1.27,73,inactive,DCUN1D4 (defective in cullin neddylation 1 domain containing 4),2
3.62,154,2.61,86.6,active,DCUN1D4 (defective in cullin neddylation 1 domain containing 4),3
-0.349,75,1.81,52.1,inactive,FRMPD1 (FERM and PDZ domain containing 1),1
1.05,103,1.13,85.4,inactive,FRMPD1 (FERM and PDZ domain containing 1),2
1.23,106,0.789,96.6,inactive,FRMPD1 (FERM and PDZ domain containing 1),3
-0.0657,80.6,0.882,71.4,inactive,ADGRE2 (adhesion G protein-coupled receptor E2),1
0.287,87.6,-0.269,105,inactive,ADGRE2 (adhesion G protein-coupled receptor E2),2
0.482,91.5,-0.179,107,inactive,ADGRE2 (adhesion G protein-coupled receptor E2),3
2.08,123,1.54,91.8,inactive,ZNFX1 (zinc finger NFX1-type containing 1),1
1.23,106,0.367,108,inactive,ZNFX1 (zinc finger NFX1-type containing 1),2
-0.0592,80.7,-0.453,102,inactive,ZNFX1 (zinc finger NFX1-type containing 1),3
0.475,91.3,1.18,74.8,inactive,H2AC21 (H2A clustered histone 21),1
-0.169,78.5,-0.0204,88.2,inactive,H2AC21 (H2A clustered histone 21),2
0.609,94,-0.0243,106,inactive,H2AC21 (H2A clustered histone 21),3
-0.447,73,-0.647,96.7,inactive,CMTM5 (CKLF like MARVEL transmembrane domain containing 5),1
-1.06,60.9,-1.86,111,inactive,CMTM5 (CKLF like MARVEL transmembrane domain containing 5),2
-0.0402,81.1,-0.0595,92,inactive,CMTM5 (CKLF like MARVEL transmembrane domain containing 5),3
